# Measurements reported in PubChem BioAssay AID2685 (National Center for Advancing Translational Sciences (NCATS), 2010).
# Hit rate of the full screen: of about 320,000 compounds, about 2,100 (0.66%) were called active. The shares of active, inactive and inconclusive entries below differ from those in the screen. Calls follow the shape of the dose curve; as a rule, active = well fitted inhibition curve with a large enough effect in the signal ratio, with a control signal flat (not every such curve was filed as active); inconclusive = small, poorly fitted or top-dose-only effect, or effect the other way, or a change in a side signal; inactive = flat fitted curve, though single readings scatter; the % refers to the signal ratio. A potency beside an inconclusive call is a rough fit, not a confirmed value.
# Assay: qHTS Assay for Lipid Storage Modulators in Drosophila S3 Cells
# Settings: BODIPY lipid droplet fluorescence, 18-24 h, cells fed with added oleic acid; lipid storage change, negative = inhibition: at 46.1 µM (top of the series) unless noted
# Method in brief: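 Drosophila S3 cells got compounds at several concentrations plus oleic acid (400 uM solution). Laser-scanning cytometry with 488 nm excitation read lipid droplets at 500-530 nm and cells at 575-640 nm. Percent activity was relative to 20 uM Triacsin C.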
# % is scaled to controls: 0 for no effect and ±100 for the full control effect; potency is read from the fitted curve at half-maximal effect.
SMILES,"lipid storage change, negative = inhibition",Potency
CCCC(=O)Oc1ccc(C2NC(=O)c3ccccc3O2)cc1 (configuration not stated),inconclusive: 118%,–
CCN(Cc1cnn(C)c1)Cc1nc(Cc2ccccc2Cl)no1,–,"inconclusive: 29.1 µM [activator, single point]"
CN(CC(=O)Nc1ccccc1C(F)(F)F)C(=O)c1cc2c(s1)CCCCC2,inconclusive: -44.6%,–
c1ccc(-n2ncc3c2ncn2nc(CSc4nc5ccccc5s4)nc32)cc1,inconclusive: 14.1%,–
Cc1cccc(NS(=O)(=O)c2c(C(=O)N3CCCC3)c(C)n(C)c2C)c1,inconclusive: -12.4%,–
Nc1cc(C(=O)N/N=C/c2cccc([N+](=O)[O-])c2)n[nH]c1=O,inconclusive: 24.6%,–
Cc1ccc(S(=O)(=O)Nc2ccncc2)c(C)c1N(C)S(=O)(=O)c1ccc(F)cc1,inconclusive: -27.2%,–
CCCC(=O)Nc1ccccc1N1CCN(C(=O)C(C)C)CC1,–,"inconclusive: 2.31 µM [activator, single point]"
O=C(NC1CCCC1)C(c1cccnc1)N(C(=O)c1csnn1)c1ccc(F)cc1 (configuration not stated),inconclusive: -3.65%,–
Cc1cc(C)c(NC(=O)Nc2ccccc2)c(C)n1,–,"inconclusive: 0.366 µM [activator, full curve, poor fit]"
O=C(CN1C(=O)NC2(CCCCC2)C1=O)Oc1ccc2ccc(=O)oc2c1,inconclusive: -8.33%,–
COc1ccc(N(CC(=O)NCCSC2CCCCC2)S(=O)(=O)c2ccccc2)c(OC)c1,inconclusive: -15.7%,–
COCCNC(=S)NC12CC3CC(CC(C3)C1)C2,–,"inconclusive: 3.26 µM [falling, full curve, poor fit]"
COc1cccc(C2NC(=O)c3ccccc3O2)c1OC (configuration not stated),–,"inconclusive: 23.1 µM [falling, single point]"
COC(=O)[C@H](CC(C)C)NC(=O)CCc1nnc(COc2ccccc2)o1,–,active: 18.4 µM
COc1ccc(C(=O)/C=C\N2CCOCC2)cc1,–,"inconclusive: 6.51 µM [activator, single point]"
O=C(CNC(=O)c1ccc(-c2ccccc2)cc1)OCc1c(Cl)cccc1Cl,–,"inconclusive: 6.51 µM [activator, partial curve]"
O=C(OCC(O)CN1CCCCC1)C12CC3CC(CC(C3)C1)C2 (configuration not stated),inconclusive: 2.51%,–
COC1=C(c2ccccc2)C(=O)c2ccccc2C1=O,–,"inconclusive: 29.1 µM [falling, single point]"
COc1ccc(-c2cc(C(=O)Oc3ccc([N+](=O)[O-])cc3)c3ccccc3n2)cc1,inconclusive: -8.73%,–
CCOC(=O)c1cc(-c2ccccc2)sc1NC(=O)C(C)N1C(=O)NC(C)(c2ccc(Cl)cc2)C1=O (configuration not stated),inconclusive: 159%,–
Cc1cccc(C)c1NC(=O)CCCN1CC(C)OC(C)C1 (configuration not stated),inconclusive: 10.8%,–
CCC(=N\NC(=O)COc1ccccc1OC)/C(CC)=N/NC(=O)COc1ccccc1OC,inconclusive: 34.4%,–
COc1cc(/C=C/C2=NC(=O)C(C)(C)O2)ccc1O,inconclusive: 118%,–
COc1ccc(NC(=O)C2CCCN(S(=O)(=O)c3ccc4c(c3)oc(=O)n4C)C2)c(OC)c1 (configuration not stated),inactive,–
CC1CN(S(=O)(=O)Cc2ccccc2)CC(C)O1 (configuration not stated),inconclusive: 93.5%,–

# 19 entries from above in a different format.
SMILES	lipid storage change, negative = inhibition	Potency
CCN(Cc1cnn(C)c1)Cc1nc(Cc2ccccc2Cl)no1	–	inconclusive: 29.1 µM [activator, single point]
CN(CC(=O)Nc1ccccc1C(F)(F)F)C(=O)c1cc2c(s1)CCCCC2	inconclusive: -44.6%	–
c1ccc(-n2ncc3c2ncn2nc(CSc4nc5ccccc5s4)nc32)cc1	inconclusive: 14.1%	–
Cc1cccc(NS(=O)(=O)c2c(C(=O)N3CCCC3)c(C)n(C)c2C)c1	inconclusive: -12.4%	–
Nc1cc(C(=O)N/N=C/c2cccc([N+](=O)[O-])c2)n[nH]c1=O	inconclusive: 24.6%	–
Cc1ccc(S(=O)(=O)Nc2ccncc2)c(C)c1N(C)S(=O)(=O)c1ccc(F)cc1	inconclusive: -27.2%	–
CCCC(=O)Nc1ccccc1N1CCN(C(=O)C(C)C)CC1	–	inconclusive: 2.31 µM [activator, single point]
O=C(NC1CCCC1)C(c1cccnc1)N(C(=O)c1csnn1)c1ccc(F)cc1 (configuration not stated)	inconclusive: -3.65%	–
Cc1cc(C)c(NC(=O)Nc2ccccc2)c(C)n1	–	inconclusive: 0.366 µM [activator, full curve, poor fit]
O=C(CN1C(=O)NC2(CCCCC2)C1=O)Oc1ccc2ccc(=O)oc2c1	inconclusive: -8.33%	–
COc1ccc(N(CC(=O)NCCSC2CCCCC2)S(=O)(=O)c2ccccc2)c(OC)c1	inconclusive: -15.7%	–
COCCNC(=S)NC12CC3CC(CC(C3)C1)C2	–	inconclusive: 3.26 µM [falling, full curve, poor fit]
COc1cccc(C2NC(=O)c3ccccc3O2)c1OC (configuration not stated)	–	inconclusive: 23.1 µM [falling, single point]
COC(=O)[C@H](CC(C)C)NC(=O)CCc1nnc(COc2ccccc2)o1	–	active: 18.4 µM
COc1ccc(C(=O)/C=C\N2CCOCC2)cc1	–	inconclusive: 6.51 µM [activator, single point]
O=C(CNC(=O)c1ccc(-c2ccccc2)cc1)OCc1c(Cl)cccc1Cl	–	inconclusive: 6.51 µM [activator, partial curve]
O=C(OCC(O)CN1CCCCC1)C12CC3CC(CC(C3)C1)C2 (configuration not stated)	inconclusive: 2.51%	–
COC1=C(c2ccccc2)C(=O)c2ccccc2C1=O	–	inconclusive: 29.1 µM [falling, single point]
COc1ccc(-c2cc(C(=O)Oc3ccc([N+](=O)[O-])cc3)c3ccccc3n2)cc1	inconclusive: -8.73%	–

# Remaining list, next part

SMILES,"lipid storage change, negative = inhibition",Potency
COc1ccc(CCNC(=O)COc2cc(O)c3c(c2)OC(C)(C)CC3=O)cc1OC,–,"inconclusive: 14.6 µM [falling, single point]"
CC(=O)Nc1cccc(C(=O)OCC(=O)Nc2c(C)nn(-c3ccccc3)c2C)c1,inconclusive: -100%,–
Cc1ccccc1NC(=O)Cc1nc(COC(=O)CCc2ccccc2)cs1,–,"inconclusive: 6.51 µM [falling, single point]"
O=c1c2cccnc2n(-c2ccccc2)n1Cc1c(Cl)cccc1Cl,inconclusive: 3.23%,–
O=C(CSc1nc2ncc(Cl)cc2[nH]1)NC1CCS(=O)(=O)C1 (configuration not stated),inconclusive: 13.3%,–
CCOc1ccc(-c2cc(C(=O)N/N=C(\C)c3cccnc3)c3ccccc3n2)c(OCC)c1,inconclusive: -0.837%,–
O=C(NCc1cccnc1)Nc1ccc(Cl)cc1,inconclusive: -12.2%,–
CCOC(=O)CN(C(=O)CSc1nnc(COc2ccc(OC)cc2)n1CC)c1ccccc1,inconclusive: -19.7%,–
CCCCOc1cccc(C(=O)Nc2ccc(S(=O)(=O)Nc3cc(C)on3)cc2)c1,inconclusive: -25%,–
COCCCn1c(-c2cccs2)nc2nc3ccccc3nc21,inconclusive: 15.1%,–
CN(C)c1nc(N)nc(N(c2ccccc2)c2ccccc2)n1,inconclusive: 28%,–
COc1ccc(C(=O)N2CCn3c(C)ccc3C2C)cc1 (configuration not stated),inconclusive: -33.1% [at 0.00295 µM],–
CSc1ccc(CNc2nnnn2C)cc1,inconclusive: -21% [at 9.22 µM],–
CCOC(=O)N1CCC(N(CCOC)C(=O)Nc2ccc(C)c(C)c2)CC1,inconclusive: -13.5%,–
c1ccc(CCCc2nc(-c3cccnc3)no2)cc1,inconclusive: 15.3%,–
COc1ccc(C(=O)CSc2nnc(-c3cc(C)on3)o2)cc1,–,"inconclusive: 29.1 µM [rising, single point]"
CC1(C)N=C(/C=N/O)C=[N+]1[O-],–,active: 6.51 µM
Cc1ccccc1-n1nc(-c2cccnc2)cc1C(=O)NN,inconclusive: -5.32%,–
OC(COc1ccc2c(c1)OCO2)CN1CCN(c2ccccc2)CC1 (configuration not stated),inconclusive: 53.1%,–
COc1ccc(C(=O)c2ccc(CC#N)s2)cc1,–,"inconclusive: 7.31 µM [activator, partial curve, poor fit]"
CC(=O)c1ccc(N2CCN(C(=O)C3CCCN3S(=O)(=O)c3cccc4nsnc34)CC2)cc1 (configuration not stated),–,"inconclusive: 16.4 µM [activator, partial curve]"
Cc1cc(OCC(=O)N(C)C2CCCCC2)cc(C)c1Cl,inconclusive: -7.36%,–
COc1ccc(C(=O)NC(=S)Nc2ccc(S(=O)(=O)Nc3cc(OC)nc(OC)n3)cc2)cc1,–,"inconclusive: 0.092 µM [activator, partial curve, poor fit]"
COc1ccc(/C=N/NC(=O)c2cccc(NC(=O)c3ccc(Cl)cc3)c2)c(OC)c1,inconclusive: 19.2%,–
Cc1c(NS(=O)(=O)c2ccc3c(c2)n(C)c(=O)n3C)c(=O)n(-c2ccccc2)n1C,–,"inconclusive: 0.13 µM [falling, single point]"
Cc1c(C(=O)N(Cc2nnc(-c3ccccc3Cl)o2)C2CC2)oc2ccccc12,inconclusive: 8.24%,–

SMILES,"lipid storage change, negative = inhibition",Potency
O=c1c(-c2nnc(SCc3ccc(Cl)cc3Cl)o2)cccn1Cc1ccccc1,inconclusive: -35%,–
Cc1ccc(SCC(=O)NC2CCCCCC2)cc1,inconclusive: 3.13%,–
COc1ccc(N=Cc2c(O)[nH]c3ccccc23)cc1,inconclusive: -27.9%,–
O=C(Nc1ccnn1C1CCN(C/C=C/c2ccccc2)CC1)c1cccc(F)c1,–,"inconclusive: 7.31 µM [activator, partial curve]"
O=C(O)CCCC(=O)Nc1ccc(Br)cc1,inconclusive: -33.7%,–
Cn1nc(CC(=O)N2CCN(c3ccccc3)CC2)c2ccccc2c1=O,inconclusive: -31%,–
Cc1ccc(NS(=O)(=O)c2ccc3c(c2)NC(=O)C(C)C(=O)N3)c(Cl)c1 (configuration not stated),inconclusive: 12%,–
Cc1nc2c(-c3ccccc3)c(C)[nH]n2c(=O)c1Cc1ccccc1,inconclusive: -89.9%,–
CCOC(=O)C1=NNC2C(=O)N(CC)C(=O)C12 (configuration not stated),–,active: 13 µM
O=C1CCCC2=C1C(c1ccccc1)CC(=O)N2c1ccccc1 (configuration not stated),–,"inconclusive: 29.1 µM [falling, single point]"
O=C(COc1ccccc1)NC1CCN(Cc2ccccc2)CC1,inconclusive: 40.8%,–
CSC1=C(C#N)C2(CCCC2)C(C#N)=C(N)N1,inconclusive: 21.2%,–
COc1ccc(-n2c(SCC(=O)Nc3ccccc3C)nc(O)c(Cc3ccccc3)c2=O)cc1,inconclusive: 20.1%,–
COc1ccc(-c2nn(-c3ccccc3)cc2C(=O)NC2CC2)cc1,–,"inconclusive: 36.6 µM [activator, partial curve, poor fit]"
O=C(CSc1ncnc2c1cnn2-c1ccccc1Cl)N1CCN(C(=O)c2ccco2)CC1,inconclusive: 46.6%,–
CCOc1cc(C(=S)N2CCOCC2)ccc1OC(=O)/C=C/c1ccc(OC)c(OC)c1,inconclusive: 17.6%,–
Cc1cc(C)c(S(=O)(=O)c2cccc(Cl)c2)c(=O)[nH]1,inconclusive: -7%,–
O=C(Cn1ccc([N+](=O)[O-])n1)c1ccccc1,inconclusive: 11.5%,–
CCc1cccc(C)c1NC(=O)CCCSc1nc2ccccc2s1,inconclusive: 24.1%,–
CCN1C(=O)[C@H]2[C@@H](c3ccc(Cl)cc3)N3C(=O)CN(CC4CC4)C(=O)[C@@]3(C)[C@H]2C1=O,inconclusive: 0.434%,–
O=C(COC(=O)/C=C/c1ccc(C(F)(F)F)cc1)NC1CC1,inconclusive,–
CCCC(=O)c1cc(F)c(N2CCN(CCC#N)CC2)cc1C,–,"inconclusive: 16.4 µM [activator, partial curve]"
Cc1cccc2sc(N(CCCN(C)C)C(=O)c3ccco3)nc12,inconclusive: -19.2% [at 9.22 µM],–
COc1ccc(S(=O)(=O)NC(C)C(=O)NC2CC2)cc1C (configuration not stated),–,"inconclusive: 3.26 µM [activator, partial curve]"
COc1ccc(C(=O)COC(=O)/C=C/c2ccc(S(=O)(=O)Nc3cccc(S(N)(=O)=O)c3)cc2)cc1,–,"inconclusive: 6.51 µM [falling, single point]"
